Literature values as cited in US9850216B2 (H. LEE MOFFITT CANCER CENTER AND RESEARCH INSTITUTE, INC., priority 2013, dated 2017).
At least one compound was matched to its structure with a doubt left.

System: ACK1 and Lck
Conditions: inhibition ratio, literature; cited from earlier work

c1ccc(-c2oc3ncnc(NC[C@@H]4CCCO4)c3c2-c2ccccc2)cc1 [AIM-100]
ACK1:Lck: 5:1
